Binding data for four substances are collected here from article PMC10556033.

Amino acid sequences for entries named in this document (tags omitted).
UniProt Q7Z6E9: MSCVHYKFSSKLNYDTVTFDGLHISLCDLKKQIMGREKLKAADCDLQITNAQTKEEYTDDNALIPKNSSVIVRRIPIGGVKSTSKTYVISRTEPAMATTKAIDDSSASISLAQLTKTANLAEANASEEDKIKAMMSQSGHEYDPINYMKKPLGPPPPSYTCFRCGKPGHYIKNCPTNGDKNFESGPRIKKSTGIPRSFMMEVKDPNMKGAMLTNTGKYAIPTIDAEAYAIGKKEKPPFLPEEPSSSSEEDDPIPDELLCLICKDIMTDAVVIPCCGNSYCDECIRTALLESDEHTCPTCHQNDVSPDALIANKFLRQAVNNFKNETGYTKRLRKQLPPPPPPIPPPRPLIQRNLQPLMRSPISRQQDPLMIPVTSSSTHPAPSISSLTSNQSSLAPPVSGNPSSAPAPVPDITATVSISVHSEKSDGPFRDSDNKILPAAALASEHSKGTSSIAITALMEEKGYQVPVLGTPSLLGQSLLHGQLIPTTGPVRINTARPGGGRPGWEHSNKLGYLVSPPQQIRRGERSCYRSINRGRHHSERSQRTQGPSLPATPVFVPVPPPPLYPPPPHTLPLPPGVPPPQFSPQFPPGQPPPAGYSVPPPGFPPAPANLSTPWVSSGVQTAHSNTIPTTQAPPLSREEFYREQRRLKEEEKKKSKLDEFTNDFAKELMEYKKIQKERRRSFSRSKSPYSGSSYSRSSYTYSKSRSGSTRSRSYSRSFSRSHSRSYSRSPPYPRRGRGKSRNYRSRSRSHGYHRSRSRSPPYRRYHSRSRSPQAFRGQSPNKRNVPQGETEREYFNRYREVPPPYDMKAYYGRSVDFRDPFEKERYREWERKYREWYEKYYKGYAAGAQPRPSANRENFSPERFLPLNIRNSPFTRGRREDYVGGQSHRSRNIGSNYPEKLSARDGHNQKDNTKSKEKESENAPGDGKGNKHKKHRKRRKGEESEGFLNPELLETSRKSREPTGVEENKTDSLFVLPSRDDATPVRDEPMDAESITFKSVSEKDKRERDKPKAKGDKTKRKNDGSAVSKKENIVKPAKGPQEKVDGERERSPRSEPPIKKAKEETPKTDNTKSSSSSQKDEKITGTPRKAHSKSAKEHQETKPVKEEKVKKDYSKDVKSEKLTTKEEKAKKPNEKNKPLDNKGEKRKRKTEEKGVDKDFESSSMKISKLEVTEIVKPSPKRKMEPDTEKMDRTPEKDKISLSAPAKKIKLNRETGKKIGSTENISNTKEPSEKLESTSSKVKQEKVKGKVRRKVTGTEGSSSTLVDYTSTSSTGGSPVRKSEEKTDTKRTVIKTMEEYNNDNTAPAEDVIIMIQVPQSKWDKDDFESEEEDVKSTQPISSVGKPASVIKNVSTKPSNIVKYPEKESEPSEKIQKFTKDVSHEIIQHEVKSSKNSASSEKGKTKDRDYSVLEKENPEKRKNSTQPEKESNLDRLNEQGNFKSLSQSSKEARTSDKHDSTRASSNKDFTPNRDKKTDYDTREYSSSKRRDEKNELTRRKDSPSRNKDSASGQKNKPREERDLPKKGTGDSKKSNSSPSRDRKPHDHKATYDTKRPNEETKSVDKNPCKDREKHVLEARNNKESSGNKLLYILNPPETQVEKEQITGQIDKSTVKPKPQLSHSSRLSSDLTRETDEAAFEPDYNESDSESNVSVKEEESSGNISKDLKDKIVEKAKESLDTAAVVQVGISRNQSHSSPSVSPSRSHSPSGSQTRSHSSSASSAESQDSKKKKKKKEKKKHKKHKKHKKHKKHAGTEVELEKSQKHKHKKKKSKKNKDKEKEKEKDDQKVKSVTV
UniProt O60573: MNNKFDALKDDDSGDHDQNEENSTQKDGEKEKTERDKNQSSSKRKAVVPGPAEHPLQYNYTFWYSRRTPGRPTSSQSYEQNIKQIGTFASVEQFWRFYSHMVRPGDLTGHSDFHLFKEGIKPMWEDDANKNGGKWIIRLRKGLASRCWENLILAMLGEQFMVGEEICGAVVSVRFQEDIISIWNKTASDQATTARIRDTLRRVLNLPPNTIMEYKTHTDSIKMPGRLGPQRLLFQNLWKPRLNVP
UniProt Q13619: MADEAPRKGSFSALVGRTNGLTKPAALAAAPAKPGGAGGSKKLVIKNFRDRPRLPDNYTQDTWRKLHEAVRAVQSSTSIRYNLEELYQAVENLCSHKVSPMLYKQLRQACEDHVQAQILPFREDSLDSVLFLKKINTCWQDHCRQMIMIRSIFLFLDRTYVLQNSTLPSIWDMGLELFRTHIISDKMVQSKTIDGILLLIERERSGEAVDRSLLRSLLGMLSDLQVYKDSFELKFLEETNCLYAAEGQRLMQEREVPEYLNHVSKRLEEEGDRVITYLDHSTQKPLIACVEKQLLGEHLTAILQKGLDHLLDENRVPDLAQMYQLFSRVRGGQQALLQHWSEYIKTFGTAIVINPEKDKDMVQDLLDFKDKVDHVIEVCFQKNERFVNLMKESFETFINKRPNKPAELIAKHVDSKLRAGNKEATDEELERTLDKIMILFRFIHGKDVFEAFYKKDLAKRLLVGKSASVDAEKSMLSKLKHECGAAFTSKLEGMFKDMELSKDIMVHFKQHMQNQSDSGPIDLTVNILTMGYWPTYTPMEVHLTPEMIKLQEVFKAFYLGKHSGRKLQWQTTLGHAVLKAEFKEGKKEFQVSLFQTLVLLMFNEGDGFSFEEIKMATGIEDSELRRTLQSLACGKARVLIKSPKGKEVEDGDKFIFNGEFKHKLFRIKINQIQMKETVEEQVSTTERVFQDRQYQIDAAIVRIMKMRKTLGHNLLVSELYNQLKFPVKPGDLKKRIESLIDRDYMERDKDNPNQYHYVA

These are yes or no findings as the source states them, for the method shown. In cells and extracts the contact can be indirect. A yes stands for co-enrichment or nearness to the bait. Other partners may have been found. Where a sequence is shown, tags or fusion partners need not be part of it.

In this assay the target is T1, His-tagged mesoderm-specific transcript (MEST), from MEST cDNA plasmid (UniProt Q5EB52).
T1 sequence (chain, N-glycan with LeY and α1,3-fucosylation at Asn163): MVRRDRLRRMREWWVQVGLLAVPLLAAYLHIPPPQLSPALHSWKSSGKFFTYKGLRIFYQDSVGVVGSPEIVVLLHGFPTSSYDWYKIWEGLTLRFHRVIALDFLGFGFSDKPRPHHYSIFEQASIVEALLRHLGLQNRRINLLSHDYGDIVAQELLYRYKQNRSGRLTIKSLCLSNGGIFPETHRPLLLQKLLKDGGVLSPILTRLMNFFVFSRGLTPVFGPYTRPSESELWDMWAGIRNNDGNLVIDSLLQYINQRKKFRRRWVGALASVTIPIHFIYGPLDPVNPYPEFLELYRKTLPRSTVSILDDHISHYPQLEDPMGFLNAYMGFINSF
Kind of assay: affinity purification with mass spectrometry; anti-MEST antibody on Protein A/G PLUS-Agarose; RIPA lysate of HTR-8/SVneo cells transfected with MEST cDNA or MEST mut; eluate separated by SDS-PAGE, trypsin digest, LC-MS/MS.

As for PKD1 (from UniProt P98161 24-4303), the binding result is on record as “binds”.
For RBBP6 (from UniProt Q7Z6E9 1-1792) the value was “binds”.
For the substance “eukaryotic initiation factor eIF4E2 (from UniProt O60573 1-245)”, the binding entry is reported as “binds”.
Regarding CUL4A (from UniProt Q13619 1-759), the binding result is on record as “binds”.
